Compound in this assay: Nc1nc2c(ncn2[C@@H]2O[C@H](COP(=O)(O)OP(=O)(O)OP(=O)(O)O)[C@@H](O)[C@H]2O)c(=O)[nH]1 [guanosine triphosphate]
The experiment in a line: NP40-soluble protein abundance relative to vehicle (solubility fold change) (ratio); higher = more soluble protein in presence of GTP. Here is the method: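 Solubility proteome profiling in Jurkat crude lysate. Lysate was treated with Mg-GTP (0.1-10 mM) for 10 min at room temperature and 3 min at 37 °C, then solubilised with 0.8% NP40 and benzonase, followed by ultracentrifugation. Proteins were quantified by TMT10 LC-MS/MS; the value is the NP40-soluble abundance relative to the NP40-processed vehicle, from 3 independent experiments.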

Sequences of proteins named here, by UniProt entry; tags and fusion partners are left off. A change or cut given only in a name is not applied to a line headed by its entry.
UniProt P04406: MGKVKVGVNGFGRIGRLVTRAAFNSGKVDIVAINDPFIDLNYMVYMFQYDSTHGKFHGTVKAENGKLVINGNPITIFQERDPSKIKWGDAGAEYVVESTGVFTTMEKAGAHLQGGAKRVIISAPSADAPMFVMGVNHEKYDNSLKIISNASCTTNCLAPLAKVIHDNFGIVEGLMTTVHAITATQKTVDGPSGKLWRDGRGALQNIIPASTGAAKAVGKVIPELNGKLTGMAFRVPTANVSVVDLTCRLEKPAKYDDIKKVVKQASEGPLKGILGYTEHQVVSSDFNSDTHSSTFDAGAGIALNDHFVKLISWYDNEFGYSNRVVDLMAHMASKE
UniProt O95297: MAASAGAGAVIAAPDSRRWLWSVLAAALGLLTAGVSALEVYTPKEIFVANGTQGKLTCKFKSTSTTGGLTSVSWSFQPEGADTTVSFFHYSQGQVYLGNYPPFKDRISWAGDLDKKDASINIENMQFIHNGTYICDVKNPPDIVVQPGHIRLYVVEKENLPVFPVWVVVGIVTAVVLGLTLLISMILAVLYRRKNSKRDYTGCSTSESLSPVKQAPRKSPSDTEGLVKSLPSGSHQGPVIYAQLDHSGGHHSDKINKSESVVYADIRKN
UniProt O95298, whole entry: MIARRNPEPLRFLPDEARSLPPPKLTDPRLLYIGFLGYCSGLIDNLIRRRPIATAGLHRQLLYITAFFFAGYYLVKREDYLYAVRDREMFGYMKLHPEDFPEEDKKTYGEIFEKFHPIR
UniProt O96013: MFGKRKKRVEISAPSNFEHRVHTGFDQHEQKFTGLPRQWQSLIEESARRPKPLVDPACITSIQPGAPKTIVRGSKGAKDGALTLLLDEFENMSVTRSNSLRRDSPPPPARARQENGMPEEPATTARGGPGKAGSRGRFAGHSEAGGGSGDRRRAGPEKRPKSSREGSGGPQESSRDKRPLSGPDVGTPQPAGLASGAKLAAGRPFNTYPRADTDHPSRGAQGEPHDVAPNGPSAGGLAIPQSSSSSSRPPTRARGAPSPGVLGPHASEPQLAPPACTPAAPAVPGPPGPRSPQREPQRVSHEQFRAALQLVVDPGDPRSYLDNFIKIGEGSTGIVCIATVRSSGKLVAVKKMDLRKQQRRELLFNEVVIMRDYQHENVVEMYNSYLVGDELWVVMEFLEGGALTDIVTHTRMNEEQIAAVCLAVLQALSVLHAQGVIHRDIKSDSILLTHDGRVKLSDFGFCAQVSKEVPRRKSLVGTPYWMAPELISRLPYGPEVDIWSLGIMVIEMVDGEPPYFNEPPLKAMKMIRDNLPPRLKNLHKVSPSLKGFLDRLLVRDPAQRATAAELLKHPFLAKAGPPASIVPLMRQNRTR

± gives the standard deviation of the averaged measurements. This is one part of the list.

Regarding UniProt P04406 and related entries, the NP40-soluble protein abundance reads like this: (concentration: 0.1mM) 0.885 ± 0.094; (concentration: 0.5mM) 0.936 ± 0.094; (concentration: 1mM) 0.863 ± 0.1; (concentration: 2mM) 0.89 ± 0.074; (concentration: 4mM) 0.836 ± 0.09; (concentration: 6mM) 0.865 ± 0.076. Moreover, the NP40-soluble protein abundance turned out to be 0.853 ± 0.085 (concentration: 8mM) and 0.846 ± 0.079 (concentration: 10mM).
UniProt P04920-3: the NP40-soluble protein abundance turned out to be 1.06 ± 0.096 (concentration: 0.1mM); 1.04 ± 0.037 (concentration: 0.5mM); 1.04 ± 0.055 (concentration: 1mM); 0.992 ± 0.026 (concentration: 2mM); 1.01 ± 0.037 (concentration: 4mM); 1.01 ± 0.024 (concentration: 6mM). In addition, the NP40-soluble protein abundance by setting is: (concentration: 8mM) 1.04 ± 0.058; (concentration: 10mM) 1.06 ± 0.23.
As to UniProt O95297 and related entries, the NP40-soluble protein abundance by setting is: (concentration: 0.1mM) 0.971 ± 0.044; (concentration: 0.5mM) 0.937 ± 0.026; (concentration: 1mM) 0.964 ± 0.061; (concentration: 2mM) 0.888 ± 0.056; (concentration: 4mM) 0.933 ± 0.016; (concentration: 6mM) 0.885 ± 0.011. The NP40-soluble protein abundance runs as follows: (concentration: 8mM) 0.901 ± 0.039; (concentration: 10mM) 0.911 ± 0.076.
As to UniProt O95298 and related entries, the NP40-soluble protein abundance (concentration: 0.1mM) was determined as 0.978 ± 0.16; the NP40-soluble protein abundance (concentration: 0.5mM) turned out to be 0.91 ± 0.1; the NP40-soluble protein abundance (concentration: 1mM) is 1.19 ± 0.22; the NP40-soluble protein abundance (concentration: 2mM) turned out to be 1.17 ± 0.14; the NP40-soluble protein abundance (concentration: 4mM) was 1.19 ± 0.15; the NP40-soluble protein abundance (concentration: 6mM) came out at 1.16 ± 0.12. For the same target, the NP40-soluble protein abundance was 1.06 ± 0.19 (concentration: 8mM) and 1.16 ± 0.26 (concentration: 10mM).
Take PAK4 (UniProt O96013): the NP40-soluble protein abundance by setting is: (concentration: 0.1mM) 1.02 ± 0.05; (concentration: 0.5mM) 1.01 ± 0.091; (concentration: 1mM) 0.995 ± 0.097; (concentration: 2mM) 0.967 ± 0.082; (concentration: 4mM) 0.945 ± 0.041; (concentration: 6mM) 0.954 ± 0.088. Moreover, the NP40-soluble protein abundance runs as follows: (concentration: 8mM) 1.01 ± 0.05; (concentration: 10mM) 0.983 ± 0.071.

For the origin of these results see the supplement of paper PMC6411743.
